Experimental data taken from paper PMC8440923, “Peptides Targeting the Interaction Between Erb1 and Ytm1 Ribosome Assembly Factors” (Frontiers in Molecular Biosciences, 2021).
Results are given in words; binding and its absence hold for the method and conditions named. Some entries that bind do so weakly or less than the wild type.

What was measured:
[1] = biological target: T1, Ytm1 (Chaetomium thermophilum ribosome assembly factor) (Chaetomium thermophilum) (UniProt G0SFB5); test: differential scanning fluorimetry; Thermofluor with SYPRO Orange; Ytm1 5 µM in 50 mM HEPES pH 7.5, 150 mM NaCl; peptide at 1 mM; 20-85°C at 1°C/min; both purified
T1 sequence: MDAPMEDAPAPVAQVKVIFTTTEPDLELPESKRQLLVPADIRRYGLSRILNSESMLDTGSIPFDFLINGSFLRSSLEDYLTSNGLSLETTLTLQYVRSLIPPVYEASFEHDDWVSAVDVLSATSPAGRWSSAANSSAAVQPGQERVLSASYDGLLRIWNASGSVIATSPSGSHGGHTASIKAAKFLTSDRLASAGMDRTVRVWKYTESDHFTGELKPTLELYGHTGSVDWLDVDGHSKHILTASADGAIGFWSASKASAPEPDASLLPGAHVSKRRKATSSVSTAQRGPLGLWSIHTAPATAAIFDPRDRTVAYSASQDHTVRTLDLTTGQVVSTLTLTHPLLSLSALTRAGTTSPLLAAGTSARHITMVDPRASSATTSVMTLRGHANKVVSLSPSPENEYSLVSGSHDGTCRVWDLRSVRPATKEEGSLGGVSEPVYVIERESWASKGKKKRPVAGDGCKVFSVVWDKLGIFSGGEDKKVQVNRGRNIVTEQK

[2] = biological target: T1, Ytm1 (Chaetomium thermophilum ribosome assembly factor) (Chaetomium thermophilum); test: MST; 5 nM Ytm1 labelled with Red-NHS second-generation dye; 50 mM HEPES pH 7.5, 150 mM NaCl, 0.1% Pluronic F-127; peptide in sixteen serial dilutions (P1 1,230-0.0751 µM; P3 maximum 1,580 µM); Monolith NT.115; both purified
[3] = biological target: T2, Biot-P6 (N-terminally biotinylated Ytm1 385-391) (Chaetomium thermophilum); test: BLI; biotinylated peptide (50 µg/ml) immobilised on streptavidin biosensor; Ytm1 (or Erb1 for Biot-P6) as analyte; interference-assay buffer with 0.05% BSA; both purified
T2 sequence (peptide, biotin on the N-terminus): RGHANKV

B1: Peptide P1 (Erb1 479-489) (peptide)
peptide: VWELLTGRQVW
notes: Erb1, Chaetomium thermophilum, residues 479-489; source: synthetic peptide, bought: Synpeptide Co., Ltd., Shanghai
binding [1]: binds

DWHPREPWCV [Peptide P3 (Erb1 780-789)]
binding [2]: binds weakly

B2: Erb1 (Chaetomium thermophilum ribosome assembly factor) (natural protein, UniProt G0SCK6 1-801, looked up)
chain: MGSKIVEKKRKSRDSDSESDNELGDGLFDGVLSQSEDEEDYIPSSEVDEDDDDDADESASEDSDDSNDSEDDEVEEDDEALLSDEIPSEGESEKDQDLAESKESKQDQDKEPSEPEILEPFVDPPRKEDEELEDRNYRIEKDANGGIRYVYDEIDPVYDSDDTDYNVPVNTIGNIPLSFYDSYPHIGYDINGKKIMRPATGDALQNLLDSIEVPEGWTGLTDPNTGKPLNLSRDELELIRKVQQGLIPDDVEDPYPDTVEWFTSVEEKMPLSAAPEPKRRFIPSKNEAKQIMKLVRAIREGRILPYKPPEEREREELEKEEEFYDLWQNEEPQPPNPMHIPAPKLPPPGYDLSYNPPPEYLPTKEEREEWEKMDPEDREKDYLPTKYDSLRKVPAWGNFVKERFERCMDLYLAPRVRKNRLNIDPNSLLPKLPSPDELKPFPTVQQTIFRGHEGRVRSVAIDPTGVALATGGDDGTVRVWELLTGRQVWSVKLNGDEAVNTVRWRPTKDTFILAAAAGEDIFLMIPTHPSVTPALDQASRDILNAGFGHATNGKQQANLPPGKEPPGKWARPGTRLEDEGVLLRITVRSTIKAISWHRRGDHFATVSPSGQRSSVAIHTLSKHLTQIPFRKLNGLAQTASFHPLRPLFFVATQRSIRCYDLQKLELVKIVQPGAKWISSFDVHPGGDNLVVGSYDKRLLWHDLDLSNRPYKTMRFHTEAIRAVRFHKGGLPLFADASDDGSLQIFHGKVPNDQLENPTIVPVKMLKGHKVVNKLGVLDIDWHPREPWCVSAGADGTARLWM
notes: Erb1, Chaetomium thermophilum; cloned in pET28-NKI/LIC 6His/3C; Erb1 was held on Ni-NTA biosensors; source: E. coli (DE3) BL21 CodonPlus (RIPL), auto-induction, purified (Histrap-HP Ni, HiTrap Heparin, Superdex 200 SEC)
binding [3]: no binding
